# Assay results as given in paper PMC2229849.
# No constants are given. Whether binding was seen depends on the method and setting. Binding seen in cells or lysates may run through a third protein. Some results given as binding are weak or reduced against the parent protein; the word gives no strength. Tags and fused reporters may be left off the sequences shown.
# T1: HA-tagged wild-type S. pombe Rpc2p (second largest RNA polymerase III subunit) (S. pombe) (UniProt Q10233)
# T1 sequence: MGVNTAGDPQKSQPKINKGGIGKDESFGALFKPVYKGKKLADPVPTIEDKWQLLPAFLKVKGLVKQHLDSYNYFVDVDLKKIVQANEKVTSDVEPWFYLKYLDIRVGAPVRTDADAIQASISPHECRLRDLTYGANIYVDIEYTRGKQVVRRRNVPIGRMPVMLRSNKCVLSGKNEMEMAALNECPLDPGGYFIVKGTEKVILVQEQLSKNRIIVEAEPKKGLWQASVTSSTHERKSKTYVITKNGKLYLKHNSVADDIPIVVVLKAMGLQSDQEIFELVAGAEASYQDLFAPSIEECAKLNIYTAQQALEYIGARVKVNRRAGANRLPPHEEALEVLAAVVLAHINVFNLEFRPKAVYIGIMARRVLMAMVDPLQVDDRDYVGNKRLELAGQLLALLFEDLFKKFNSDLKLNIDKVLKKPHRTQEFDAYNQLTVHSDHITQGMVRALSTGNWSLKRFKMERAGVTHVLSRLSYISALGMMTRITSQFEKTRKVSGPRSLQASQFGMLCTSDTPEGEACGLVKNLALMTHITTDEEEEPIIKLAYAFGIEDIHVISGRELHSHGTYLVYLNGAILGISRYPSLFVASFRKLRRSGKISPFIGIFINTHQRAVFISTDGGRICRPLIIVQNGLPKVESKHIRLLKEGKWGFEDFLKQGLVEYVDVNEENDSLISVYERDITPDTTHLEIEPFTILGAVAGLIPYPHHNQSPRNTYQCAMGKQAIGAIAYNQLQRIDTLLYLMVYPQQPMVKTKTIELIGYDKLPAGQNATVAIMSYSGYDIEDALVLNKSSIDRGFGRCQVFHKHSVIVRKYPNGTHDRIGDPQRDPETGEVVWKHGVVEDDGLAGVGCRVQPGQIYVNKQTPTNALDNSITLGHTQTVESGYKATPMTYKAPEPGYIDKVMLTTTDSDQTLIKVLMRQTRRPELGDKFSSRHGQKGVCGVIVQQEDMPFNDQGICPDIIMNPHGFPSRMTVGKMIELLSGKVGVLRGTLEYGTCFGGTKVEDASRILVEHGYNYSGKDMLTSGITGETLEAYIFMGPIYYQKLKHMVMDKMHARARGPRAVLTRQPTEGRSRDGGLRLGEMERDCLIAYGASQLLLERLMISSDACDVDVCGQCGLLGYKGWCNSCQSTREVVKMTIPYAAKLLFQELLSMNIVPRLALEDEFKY
# T2: His6-FLAG-tagged S. pombe Rpc53p (RNA polymerase III subunit) (S. pombe) (UniProt O74857)
# T2 sequence: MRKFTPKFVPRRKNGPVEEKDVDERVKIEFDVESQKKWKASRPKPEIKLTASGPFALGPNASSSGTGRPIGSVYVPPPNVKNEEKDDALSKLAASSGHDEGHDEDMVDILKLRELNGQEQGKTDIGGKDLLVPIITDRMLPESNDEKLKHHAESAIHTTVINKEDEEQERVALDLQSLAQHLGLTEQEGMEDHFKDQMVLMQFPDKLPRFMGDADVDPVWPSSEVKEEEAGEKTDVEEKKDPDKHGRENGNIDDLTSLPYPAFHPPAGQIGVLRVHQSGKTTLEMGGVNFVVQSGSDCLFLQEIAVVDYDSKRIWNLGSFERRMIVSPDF
# Assays:
# [1] = biological target: T1, HA-tagged wild-type S. pombe Rpc2p (second largest RNA polymerase III subunit) (S. pombe); assay: co-IP; sequential affinity purification of Pol III from S. pombe extracts: FLAG-His6-Rpc53p as in ref. 50, then the eluate from the Ni-NTA column on anti-HA beads (HA-Rpc2p or HA-Rpc2-Δp) for 4 h at 4 °C; elution by boiling in SDS loading buffer; immunoblot of subunits
# [2] = biological target: T2, His6-FLAG-tagged S. pombe Rpc53p (RNA polymerase III subunit) (S. pombe); assay: as above
binding [1],binding [2],Binder
binds,,"His6-FLAG-tagged S. pombe Rpc53p (RNA polymerase III subunit) (protein, UniProt O74857 1-330) MRKFTPKFVPRRKNGPVEEKDVDERVKIEFDVESQKKWKASRPKPEIKLTASGPFALGPNASSSGTGRPIGSVYVPPPNVKNEEKDDALSKLAASSGHDEGHDEDMVDILKLRELNGQEQGKTDIGGKDLLVPIITDRMLPESNDEKLKHHAESAIHTTVINKEDEEQERVALDLQSLAQHLGLTEQEGMEDHFKDQMVLMQFPDKLPRFMGDADVDPVWPSSEVKEEEAGEKTDVEEKKDPDKHGRENGNIDDLTSLPYPAFHPPAGQIGVLRVHQSGKTTLEMGGVNFVVQSGSDCLFLQEIAVVDYDSKRIWNLGSFERRMIVSPDF"
binds,binds,"S. pombe Rpc11p (RNA polymerase III subunit) (protein, UniProt O13896 1-109) MQFCPTCGNHLIVAVDEEGRNAFDCRTCPYHFPISTFLYSRHEFAQKEVDDVLGGEEAFESNQQTEVTCENTKCDNNRAYFFQLQIRSADEPMSTFYRCTKCKFQWREN"
